{"source": "PubChem BioAssay AID1259254 (NCATS, 2017)", "test": "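Finding genes that stop cells copying their DNA twice in one cycle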 (primary screen)", "system": "human HCT116 colorectal cancer cells", "reagents": "single siRNA against human genes", "duration": "3 days", "detection": "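Imaged Hoechst DNA stain sorts each cell into a cycle phase by DNA amount; per plate, G2 fraction set to 0% for non-targeting and 100% for GMNN siRNA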", "scale": "G2 robust z-score and G2 cells, % of GMNN control: higher = more G2 cells, more excess DNA replication", "active means": "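An siRNA counts as active if its G2 robust z-score lies at least 5 MADs above the screen median; here such calls match roughly 38% of GMNN control or more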", "note": "The deposit covers about 59,000 reagents; below is a random part of them. About 1,550 of all reagents (2.6%) count as active. 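G2 share is only a proxy for re-replication; each gene was hit by three separate siRNAs, and active genes were retested.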 The numbers tell different reagents against one gene apart. Not all columns of the deposit are shown. No sequences are given here. The record does not give: the amount of reagent."}
{"target gene": "BRS3", "reagent no.": 1, "G2 robust z-score": 1.19, "G2 cells, % of GMNN control": 11.4, "call": "inactive"}
{"target gene": "BRS3", "reagent no.": 2, "G2 robust z-score": -0.262, "G2 cells, % of GMNN control": 1.12, "call": "inactive"}
{"target gene": "BRS3", "reagent no.": 3, "G2 robust z-score": 4.74, "G2 cells, % of GMNN control": 36.3, "call": "inactive"}
{"target gene": "ZNF254", "reagent no.": 1, "G2 robust z-score": 1.36, "G2 cells, % of GMNN control": 12.5, "call": "inactive"}
{"target gene": "ZNF254", "reagent no.": 2, "G2 robust z-score": -0.154, "G2 cells, % of GMNN control": 1.88, "call": "inactive"}
{"target gene": "ZNF254", "reagent no.": 3, "G2 robust z-score": -1.1, "G2 cells, % of GMNN control": -4.78, "call": "inactive"}
{"target gene": "WFIKKN2", "reagent no.": 1, "G2 robust z-score": 4.89, "G2 cells, % of GMNN control": 37.4, "call": "inactive"}
{"target gene": "WFIKKN2", "reagent no.": 2, "G2 robust z-score": -0.933, "G2 cells, % of GMNN control": -3.6, "call": "inactive"}
{"target gene": "WFIKKN2", "reagent no.": 3, "G2 robust z-score": -0.38, "G2 cells, % of GMNN control": 0.294, "call": "inactive"}
{"target gene": "PDE3B", "reagent no.": 1, "G2 robust z-score": -0.576, "G2 cells, % of GMNN control": -1.08, "call": "inactive"}
{"target gene": "PDE3B", "reagent no.": 2, "G2 robust z-score": -0.752, "G2 cells, % of GMNN control": -2.32, "call": "inactive"}
{"target gene": "PDE3B", "reagent no.": 3, "G2 robust z-score": -0.95, "G2 cells, % of GMNN control": -3.72, "call": "inactive"}

Look-ups from the list:
For “call”, ZNF254 #2 has inactive
Entry for WFIKKN2 #2 under “G2 robust z-score”: -0.933
